Results deposited as PubChem BioAssay AID1508597 (Cure First, 2020).

- Test: 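Knock-downs altering ovarian cancer cell survival with or without PARP inhibitor rucaparib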 (primary screen)
- Cell system: human ovarian carcinoma lines grown from tumours: OCI-P5x (papillary serous) and OCI-C5x (clear cell)
- Reagents: siRNA pool against human genes, 1.25 pmol siRNA per well
- Timing: 72 h or 96 h, depending on the cell culture
- Conditions: rucaparib 20 µM (about IC30) or vehicle, present until read-out
- Rucaparib or vehicle: Vehicle
- Cell line: OCI-P5x (serous)
- Measured: 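ATP luminescence measured at 72 or 96 h according to the culture, then normalised and expressed as percent viability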
- Direction: viability, normalised: higher = more viable cells remaining
- Hit rule: 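Active when normalised viability falls below 80 percent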
- Meaning of the calls: active = viability under 80%; inactive = viability 80% or more
Shown is a random part of the about 2,100 reagents, in one setting of the screen. 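Calls flag viability under 80% in either arm, not effects specific to rucaparib; the reference for percent is not stated.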 The record does not give: the 100% reference.

CDH2, technical replicate 1 | viability, normalised (%): 89.1; Outcome: inactive
CDH2, technical replicate 2 | viability, normalised (%): 75.2; Outcome: active
CDH2, technical replicate 3 | viability, normalised (%): 134; Outcome: inactive
ENPP3, technical replicate 1 | viability, normalised (%): 65.8; Outcome: active
ENPP3, technical replicate 2 | viability, normalised (%): 73.3; Outcome: active
ENPP3, technical replicate 3 | viability, normalised (%): 66.7; Outcome: active
PDXK, technical replicate 1 | viability, normalised (%): 104; Outcome: inactive
PDXK, technical replicate 2 | viability, normalised (%): 86.2; Outcome: inactive
PDXK, technical replicate 3 | viability, normalised (%): 92.5; Outcome: inactive
PKN2, technical replicate 1 | viability, normalised (%): 46.1; Outcome: active
PKN2, technical replicate 2 | viability, normalised (%): 64.9; Outcome: active
PKN2, technical replicate 3 | viability, normalised (%): 61.3; Outcome: active
DOT1L, technical replicate 1 | viability, normalised (%): 65.2; Outcome: active
DOT1L, technical replicate 2 | viability, normalised (%): 67.3; Outcome: active
DOT1L, technical replicate 3 | viability, normalised (%): 80.6; Outcome: inactive
PTK7, technical replicate 1 | viability, normalised (%): 59; Outcome: active
PTK7, technical replicate 2 | viability, normalised (%): 65.7; Outcome: active
PTK7, technical replicate 3 | viability, normalised (%): 81; Outcome: inactive
SRSF1, technical replicate 1 | viability, normalised (%): 75.6; Outcome: active
SRSF1, technical replicate 2 | viability, normalised (%): 72.7; Outcome: active
SRSF1, technical replicate 3 | viability, normalised (%): 76.8; Outcome: active
KAT2B, technical replicate 1 | viability, normalised (%): 59.3; Outcome: active
KAT2B, technical replicate 2 | viability, normalised (%): 67.2; Outcome: active
KAT2B, technical replicate 3 | viability, normalised (%): 74.3; Outcome: active
FANCG, technical replicate 1 | viability, normalised (%): 132; Outcome: inactive
FANCG, technical replicate 2 | viability, normalised (%): 119; Outcome: inactive
FANCG, technical replicate 3 | viability, normalised (%): 120; Outcome: inactive
MAP3K9, technical replicate 1 | viability, normalised (%): 72.7; Outcome: active
MAP3K9, technical replicate 2 | viability, normalised (%): 79.5; Outcome: active
MAP3K9, technical replicate 3 | viability, normalised (%): 63.4; Outcome: active
EME2, technical replicate 1 | viability, normalised (%): 99.1; Outcome: inactive
EME2, technical replicate 2 | viability, normalised (%): 103; Outcome: inactive
EME2, technical replicate 3 | viability, normalised (%): 104; Outcome: inactive
